# Source: PubChem BioAssay AID1671190 (National Center for Advancing Translational Sciences (NCATS), 2021)
# Protein sequences, listed by entry. Tags and fused reporters are not part of them. Lines headed by an entry give the natural chain unless they say otherwise; changes in a name come on top.
# UniProt P18054: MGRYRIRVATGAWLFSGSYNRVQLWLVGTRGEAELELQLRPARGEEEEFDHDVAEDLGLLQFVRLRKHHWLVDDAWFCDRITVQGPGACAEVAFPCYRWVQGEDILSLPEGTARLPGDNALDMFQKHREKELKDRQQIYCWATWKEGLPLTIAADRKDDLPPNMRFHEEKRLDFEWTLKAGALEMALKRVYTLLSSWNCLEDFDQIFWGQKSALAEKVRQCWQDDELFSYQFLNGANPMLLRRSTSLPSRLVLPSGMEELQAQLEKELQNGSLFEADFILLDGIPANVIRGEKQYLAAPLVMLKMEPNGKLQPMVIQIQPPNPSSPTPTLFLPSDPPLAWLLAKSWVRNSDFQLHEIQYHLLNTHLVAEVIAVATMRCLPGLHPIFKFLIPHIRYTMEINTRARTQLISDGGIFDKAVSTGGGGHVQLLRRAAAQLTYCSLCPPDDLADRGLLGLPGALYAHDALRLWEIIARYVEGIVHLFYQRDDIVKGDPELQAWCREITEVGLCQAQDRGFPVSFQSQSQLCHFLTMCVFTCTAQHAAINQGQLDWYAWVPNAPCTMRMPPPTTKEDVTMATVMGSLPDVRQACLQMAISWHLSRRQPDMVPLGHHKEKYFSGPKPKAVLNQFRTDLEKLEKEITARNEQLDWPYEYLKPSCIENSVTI
# Values joined by “and” are separate entries in the source; they are usually repeats but may differ in a detail not shown here. Equal entries are not always repeated. Out of some 580,000 compounds screened, about 6,100 (1.1%) were called active. The shares of active, inactive and inconclusive entries below differ from those in the screen. Calls come from the whole dose curve; as a rule, active = well fitted inhibition curve with a large enough effect; inconclusive = small, poorly fitted or top-dose-only effect, or another doubt; inactive = no such curve, though single readings can be large or run the other way. Potencies of inconclusive entries are doubtful fits and often do not repeat.
# Molecular target: Polyunsaturated fatty acid lipoxygenase ALOX12 (Homo sapiens) (UniProt P18054)
# Assay: Primary qHTS assay for inhibitors of human arachidonate 12S-lipoxygenase (ALOX12): Round 2
# Details: purified 12hLO, xylenol orange hydroperoxide absorbance; activity change, negative = inhibition: at 108 µM (top of the series) unless noted
# Outline: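 Hydroperoxide product was detected by ferrous iron/xylenol orange as the 573 to 405 nm absorbance ratio. Arachidonic acid at 40 uM (final) was turned over for 30 min at room temperature by 150 nM human 12hLO, pH 7.0 Hepes buffer, after 15 min compound preincubation.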
# % is set by controls: 0 for no effect and ±100 for the full control effect; potency is the fitted concentration of half-maximal effect.
SMILES,Potency,"activity change, negative = inhibition"
Cn1cccc1C(=O)N[C@H]1C[C@@H](C(=O)O)N(C(=O)CSCC(=O)N2C[C@@H](NC(=O)c3cccn3C)C[C@H]2C(=O)O)C1,"inconclusive: 39.8 µM [inhibitor, single point]",–
CCCCOc1ccc(NC(=O)COc2ccc(C)c(C)c2)c2cccnc12,inactive,–
CN(C)CCCN(Cc1cc2cc3c(cc2[nH]c1=O)OCCO3)C(=O)NC1CCCCC1,"inconclusive: 44.7 µM [inhibitor, partial curve, poor fit]",–
FC(F)(F)c1ccccc1Cc1c(-c2ccco2)nc2ccc(Br)cn12,active: 35.5 µM,–
Cc1ccc(CNc2oc(C)nc2C#N)cc1,"inconclusive: 141 µM [inhibitor, partial curve, poor fit]",–
O=C(CC1(O)C(=O)N(C/C=C/c2ccccc2)c2ccccc21)c1ccccc1 (centres undefined),"inconclusive: 141 µM [inhibitor, single point]",–
C=CCN(C)C(=O)[C@@H](C)C1CC[C@@]2(C)Cc3sc(NCCCC)nc3[C@@H](C)[C@@H]2[C@H]1O (some centres undefined),"inconclusive: 63.1 µM [inhibitor, partial curve]",–
COc1cc(OC)c(C(=O)N2CCCn3nc(C(=O)O)cc3C2)cc1OC,"inconclusive: 10 µM [inhibitor, full curve]",–
N=C1/C(=C/c2cccs2)C(=O)N=C2SN=C(SCc3ccccc3)N12,"inconclusive: 44.7 µM [inhibitor, partial curve, poor fit]",–
COc1cccc(CN2CCC(C(=O)N3CCN(Cc4ccc5c(c4)OCO5)CC3)CC2)c1OC,"inconclusive: 0.794 µM [inhibitor, full curve, poor fit]",–
CCCOc1ccc(CSc2ncn[nH]2)cc1,inactive,–
CCOC(=O)c1c(C)[nH]c(C(=O)CN2CCN(CC)CC2)c1C,"inconclusive: 0.708 µM [inhibitor, full curve, poor fit]",–
Cn1c(-c2cccc([N+](=O)[O-])c2)cnc1NCc1cccc(F)c1,"inconclusive: 2.24 µM [inhibitor, full curve, poor fit]",–
Cc1ccccc1CSc1nccn1-c1ccccc1,"inconclusive: 56.2 µM [inhibitor, single point]",–
O=C(CNC(=O)c1cccs1)c1ccc(F)cc1,inactive,–
COc1ccccc1N1CCN([C@@H]2[C@H](O)[C@H](CO)O[C@@H]2CNC2CCCCC2)CC1,"inconclusive: 8.91 µM [inhibitor, full curve]",–
O=C(c1ccc(F)c(Cl)c1)N1CCN(c2cc(C(F)(F)F)ncn2)CC1,"inconclusive: 44.7 µM [inhibitor, partial curve, poor fit]",–
C=CCNC(=O)CNC(=O)NCc1ccc(F)cc1,"inconclusive: 0.891 µM [inhibitor, full curve, poor fit]",–
Cc1c(CCOC(=O)C2C3CC4CC(C3)CC2C4)sc[n+]1CC(=O)c1ccc(Br)cc1 (centres undefined),"active: 39.8 µM and inconclusive: 39.8 µM [inhibitor, partial curve, poor fit]",–
Cc1cc(C)nc(SCc2ccc(C(=O)N3CC[C@@](C)(O)[C@@H](O)C3)o2)n1,"inconclusive: 28.2 µM [inhibitor, full curve, poor fit]",–
CSC1=N/C(=C\c2ccc3ccccc3c2)C(=O)S1,"inconclusive: 39.8 µM [inhibitor, partial curve]",–
CCCCN(CC)CCCNC(=O)Cn1ncc2c3ccccc3n(Cc3ccc(F)cc3)c2c1=O,"inconclusive: 126 µM [inhibitor, partial curve, poor fit]",–

SMILES,Potency,"activity change, negative = inhibition"
COc1cccc(C(=O)/C=C/Nc2ccc(S(=O)(=O)Nc3cccc(C(C)=O)c3)cc2)c1,"inconclusive: 39.8 µM [inhibitor, partial curve, poor fit]",–
CNC(=O)c1ccc(CN(C2CC2)S(=O)(=O)c2ccc3c(c2)CCC3)cc1,inactive,–
CSc1ccc(/C=C(/C#N)C(=O)Nc2c(C)cc(C)cc2C)cc1,inactive,–
CCOC(=O)c1cc(CC)sc1NC(=O)c1ccc(N2CCOCC2)c([N+](=O)[O-])c1,inactive,–
CC(=O)C1=C(C)N(Cc2ccccc2)C(=O)N[C@H]1c1cccc(C(F)(F)F)c1,inactive,–
Cc1cccc(OCC2(CNC(=O)c3cccnc3)C[C@@H](O)[C@@H](O)C2)n1 (some centres undefined),"inconclusive: 10 µM [inhibitor, full curve]",–
O=C(c1cc2cc(Cl)ccc2[nH]1)N1CCN(Cc2ccc3c(c2)OCO3)CC1,"inconclusive: 28.2 µM [inhibitor, partial curve]",–
O=C(O)c1cc([N+](=O)[O-])cc2ccccc12,"inconclusive: 56.2 µM [inhibitor, partial curve, poor fit]",–
Fc1ccc2cnc(-c3ccsc3)cc2c1,"inconclusive: 79.4 µM [inhibitor, single point]",–
N#Cc1ccccc1NC(=S)NC(=O)C1CCC1,inactive,–
COCOCCn1cc(CN2CCS(=O)(=O)N(Cc3ccc(-c4ccc(OC)nc4)cc3)C(C)C2=O)nn1 (centres undefined),"inconclusive: 126 µM [inhibitor, single point]",–
CCC(=O)Oc1ccc2c(C)c(Cl)c(=O)oc2c1,"inconclusive: 56.2 µM [inhibitor, partial curve, poor fit]",–
CC(C)(C)C(=O)Nc1cc(S(=O)(=O)N2CCCCC2)ccc1N1CCCCC1,"inconclusive: 11.2 µM [inhibitor, full curve, poor fit]",–
CCOc1ccc(NS(=O)(=O)c2ccc(NS(=O)(=O)c3ccc(SC)cc3)cc2)cc1,"inconclusive: 63.1 µM [inhibitor, partial curve, poor fit]",–
Cc1cc(NC(=O)CNc2cc(S(=O)(=O)N3CCOCC3)ccc2N2CCCC2)no1,"inconclusive: 44.7 µM [inhibitor, full curve, poor fit]",–
CC(NC(=O)c1ccc2c(c1)sc1nc(-c3ccccc3)cn12)C12CC3CC(CC(C3)C1)C2 (centres undefined),"inconclusive: 22.4 µM [inhibitor, partial curve]",–
COC(=O)CNC(=O)CNC(=O)c1nn(-c2ccc(OC)c(OC)c2)c(=O)c2ccccc12,inactive,–
CCOC(=O)C1CCN(CC(=O)c2c(C)[nH]c3ccccc23)CC1,"inconclusive: 79.4 µM [inhibitor, partial curve, poor fit]",–
C/C(=N\Nc1ccc(F)cc1F)c1ccccc1O,"inconclusive: 44.7 µM [inhibitor, partial curve, poor fit]",–
CCc1nc(SC)ncc1C(=O)N1CCN(c2cc(C)ccc2C)CC1,"inconclusive: 50.1 µM [inhibitor, partial curve, poor fit]",–
CC12CCCCC1(O)[N+](=O)C1=C(CCCC1)N2[O-] (centres undefined),"inconclusive: 56.2 µM [inhibitor, partial curve, poor fit]",–
COc1ccc(/C=N/NC(=O)c2cc(-c3ccccc3OC)nc3ccccc23)cc1COC(C)=O,inactive,–

SMILES,Potency,"activity change, negative = inhibition"
COc1cc(NC(=O)CSc2nncn3c2cc2oc(C)cc23)cc(OC)c1,inactive,–
CCCNc1c(NC(=O)c2ccccc2)c(=O)oc2ccccc12,–,inconclusive: -30.5% [inhibitor]
COc1cc(-c2nc(C3CC(=O)N(c4ccc(C)cc4)C3)no2)cc(OC)c1OC (centres undefined),inactive,–
N#Cc1ccc(C(=O)Nc2cc(S(=O)(=O)Nc3ccc(Cl)cc3)ccc2N2CCCCC2)cc1,"inconclusive: 39.8 µM [inhibitor, partial curve, poor fit]",–
CCSc1nc2cc(S(=O)(=O)N3CCOCC3)ccc2o1,"inconclusive: 31.6 µM [inhibitor, partial curve, poor fit]",–
CC(=O)NC(C(=O)c1ccccc1)C(=O)c1ccccc1,inactive,–
COc1ccc2sc(-c3ccc(N(C)C)cc3)c(C#CC(C)(C)O)c2c1,inactive,–
O=C(CC[C@@H]1CNC(=O)[C@@H]2C[C@H](NC(=O)c3cccc(F)c3)CN12)NCc1cccnc1,inactive,–
COc1cccc(C(=O)Nc2oc3ccccc3c(=O)c2-c2ccc3c(c2)OCO3)c1,"inconclusive: 50.1 µM [inhibitor, partial curve, poor fit]",–
C=CCn1c(=O)c(C(=O)NCCc2ccc(Cl)cc2)c(O)c2cc(OC)c(OC)cc21,inactive,–
CCn1c(C2CCCN(C(=O)Cc3c[nH]c(=O)n(C)c3=O)C2)nn(C)c1=O (centres undefined),inactive,–
CC(C)CNC(=O)COC(=O)c1cc(-c2ccco2)nc2ccccc12,"inconclusive: 2.82 µM [inhibitor, full curve, poor fit]",–
CSc1ccc(Cn2c(C)c(C(=O)NCc3cccc(C)c3)sc2=O)cc1,inactive,–
COc1cc(/C=c2\s/c(=C\C(=O)C(C)(C)C)[nH]c2=O)cc(OC)c1OC,"inconclusive: 28.2 µM [inhibitor, partial curve, poor fit]",–
CCN1CCN(c2ccc(NC(=O)COc3ccc([N+](=O)[O-])cc3)cc2)CC1,inactive,–
COc1cc(C2C(C(=O)c3cc4ccccc4o3)=C(O)C(=O)N2c2cc(C)on2)cc(OC)c1OC (centres undefined),active: 10 µM,–
O=C(NC(=S)Nc1ccccc1F)C1CCCCC1,"inconclusive: 31.6 µM [inhibitor, partial curve]",–
CCOC(=O)CNC(=O)c1ccc(C(=O)NCC(=O)OCC)cc1,inactive,–
Cn1cncc1C#Cc1ccc2cc(CCCO)oc(=O)c2c1,"inconclusive: 50.1 µM [inhibitor, partial curve, poor fit]",–
COc1ccc(C2NC(=O)C(C#N)=C(S)N2c2ccccc2)cc1OC (centres undefined),"inconclusive: 50.1 µM [inhibitor, partial curve, poor fit]",–

# Among those listed so far, these contain a CF3 group.
SMILES,Potency,"activity change, negative = inhibition"
FC(F)(F)c1ccccc1Cc1c(-c2ccco2)nc2ccc(Br)cn12,active: 35.5 µM,–
O=C(c1ccc(F)c(Cl)c1)N1CCN(c2cc(C(F)(F)F)ncn2)CC1,"inconclusive: 44.7 µM [inhibitor, partial curve, poor fit]",–
CC(=O)C1=C(C)N(Cc2ccccc2)C(=O)N[C@H]1c1cccc(C(F)(F)F)c1,inactive,–
